{"source": "patent EP1373238B1", "about": "“ALKYLXANTHATES AND THEIR USE AS PESTICIDES” (priority 2001, dated 2002)", "origin": "cited, not measured here", "tested_on": "various aquatic stages of Aedes aegypti mosquito", "settings": "Venkateswara Rao et al., 1995; cited from earlier work", "note": "“Also recorded” adds a separate entry of the source. For at least one compound, name, drawing or mass did not settle the structure."}
{"smiles": "CC(C)COC(=S)SCCSC(=S)OCC(C)C", "note": "[Compound 4, Ethylene Bis (isobutylxanthate)]", "values": [{"measurement": "larvicidal and insect growth regulatory activity", "value": "larvicidal and insect growth regulatory activity in dose dependent mannar; also recorded: larvicidal and insect growth regulatory activity in dose dependent manner"}]}
